Values quoted from earlier work, collected in article PMC10820479, “An Improved In Vitro Blood-Brain Barrier Model for the Evaluation of Drug Permeability Using Transwell with Shear Stress” (Pharmaceutics, 2023).

Details: monkey; unbound plasma-CSF partition coefficient; cited from earlier work

## CC(C)NCC(O)COc1ccc(CC(N)=O)cc1 (stereo not shown) [Atenolol, atenolol]
  Kp,uu,CSF: 0.331 (monkey) ^3
